PubChem BioAssay AID686937 – Drosophila RNAi Screening Center, 2013
Aim: 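Genes in the fly needed for secretion of protein constitutively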 (primary screen). Cell system: Drosophila S2 cells expressing secreted horseradish peroxidase. Reagents: long dsRNA against Drosophila genes. Timing: about 5.5 days (5 days dsRNA, then 12 h reporter induction). Conditions: reporter expression induced after 5 days of dsRNA, read 12 h later; inducer not stated. Read-out: 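After 5 days of dsRNA and 12 h of reporter induction, medium peroxidase read by chemiluminescence and scored as per-plate z-score; higher values mean more reporter released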. Scale: z-score: higher = more reporter secreted into medium.
In all, the deposit lists about 23,000 reagents; below is a random part of those that have a named target and a result. 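Reduced-secretion tags in replicate 1 do not always agree with the z-scores; no criterion for assigning the tags was given.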 Names joined by + are all predicted targets of the reagent. Reagent sequences are not shown. Not stated in the record: the amount of reagent.

gene	dsRNA	z-score, replicate 1	z-score, replicate 2	z-score, replicate 3	z-score, replicate 4	phenotype, replicate 1
CG2972	DRSC18250	0.38	0.3			
ninaE (neither inactivation nor afterpotential E)	DRSC17014	0.41	0.41			
CG30087	DRSC21677	-0.16	-0.34			
TfIIS (RNA polymerase II elongation factor)	DRSC03455	-0.77	-0.42			
Hers (Histone gene-specific Epigenetic Repressor in late S phase)	DRSC19429	0.04	0.21			
Hers (Histone gene-specific Epigenetic Repressor in late S phase)	DRSC19676	0.46	0.28			
Cyp313a1 (Cytochrome P450 313a1)	DRSC16624	0.26	0.39			
ZnT41F (Zinc transporter 41F)	DRSC04850	0.29	0.26			
Pglym78 (Phosphoglyceromutase 78)	DRSC16787	0.12	0.22			
Map60 (Microtubule-associated protein 60)	DRSC07464	0.52	0.49			
CCKLR-17D3 (Cholecystokinin-like receptor at 17D3)	DRSC20015	0.7	0.54			
CCKLR-17D3 (Cholecystokinin-like receptor at 17D3)	DRSC20017	0.02	0.58			
Rpn8 (Regulatory particle non-ATPase 8)	DRSC04624	-6.44	-6.99			reduced secretion
tej (tejas)	DRSC07219	0.21	0.22			
yellow-c + CIAPIN1	DRSC01898	0.29	0.42			
RpS2 (Ribosomal protein S2)	DRSC03614	-4.06	-3.1			reduced secretion
D1 (D1 chromosomal protein)	DRSC16638	0.6	0.52			
CG31269	DRSC15744	0	0.16			
CR17438 (pseudo)	DRSC18125	0.37	0.56			
CG14995	DRSC08452	-1.09	-1.02			
hzg (herzog)	DRSC10549	-1.2	-0.78			
CG2059	DRSC18203	0.17	0.29			
CG9014	DRSC01979	0.47	0.28			
beta4GalNAcTA (beta1,4-N-acetylgalactosaminyltransferase A)	DRSC05944	0.66	0.67			
CG10140	DRSC09704	0.35	0.26			
CG13847	DRSC14697	-0.02	-0.54			
Atac1 (Ada2a-containing complex component 1)	DRSC03155	0.27	0.18			
CR18275 (pseudo)	DRSC18151	0.4	0.23			
sxc (super sex combs)	DRSC04911	-1.04	-0.68			
OtopLa (Otopetrin-like a)	DRSC17787	-3.71	0.56	0.47	-2.56	
OtopLa (Otopetrin-like a)	DRSC18133	0.41	0.53			
CG8850	DRSC07287	0.34	0.35			
ZnT86D (Zinc transporter 86D)	DRSC16091	-0.19	0.37			
CG8195	DRSC07103	0.51	0.49			
Whamy (WHAMM and JMY related)	DRSC14574	0.1	0.44			
Mst85C	DRSC16746	0.36	0.57			
Ir60e (Ionotropic receptor 60e)	DRSC04227	0.06	0.29			
Or56a (Odorant receptor 56a)	DRSC07495	0.43	0.33			
Lis-1 (Lissencephaly-1)	DRSC07459	0.39	0.28			
Miox (Myo-inositol oxygenase)	DRSC10747	0.47	0.4			
CG11147	DRSC02129	0.35	-0.37			
mEFG1 (mitochondrial translation elongation factor G 1)	DRSC02758	-0.61	-0.53			
CG13563	DRSC22153	-1.22	-0.1			reduced secretion
ng4 (new glue 4)	DRSC18805	0.16	0.13			
Cyp9h1 (Cytochrome P450 9h1)	DRSC07391	0.2	0.39			
moon (moonshiner)	DRSC19497	0.14	0.52			
l(1)G0469 (lethal (1) G0469)	DRSC19412	0.51	0.61			
l(1)G0469 (lethal (1) G0469)	DRSC19462	0.13	0.2			
Noa36	DRSC16761	0.48	0.57			
CG14535	DRSC02393	0.18	0.35			
Pdp1 (PAR-domain protein 1)	DRSC08896	-3.61	-2.31			reduced secretion
Pdp1 (PAR-domain protein 1)	DRSC08897	-4.04	-2.21			reduced secretion
Pdp1 (PAR-domain protein 1)	DRSC11251	0.02	0.14			
ERp60 (Endoplasmic reticulum p60)	DRSC07309	-0.33	-0.19			
CG31800	DRSC22525	0.98	2.02			
CNMa (CNMamide)	DRSC08405	-0.35	-0.2			
pn (prune)	DRSC18822	0.11	0.07			
CG6901	DRSC16129	0.41	0.54			
Cp7Fb (Chorion protein b at 7F)	DRSC18034	0.3	0.47			
Syn1 + CG7370	DRSC22768	-1.21	-0.51			
CG1463	DRSC19603	0.52	0.26			
CG12971	DRSC11681	0.3	0.33			
CG13919	DRSC08388	-0.55	0.06			
CG8087	DRSC16375	0.48	0.72			
Pp1-Y1 (Protein phosphatase 1, Y-linked 1)	DRSC20896	-1.52	-0.27			reduced secretion
CG14609	DRSC12553	0	0			
sro (shroud)	DRSC14469	-1.15	-0.39	-0.23	-0.45	
CG4679	DRSC06880	-0.23	-0.05			
N (Notch)	DRSC18685	0.17	0.23			
SelR (Selenoprotein R)	DRSC16071	-0.06	-0.65			
CG31855	DRSC02968	1.26	0.45			
GCS1 (Glucosidase 1)	DRSC19744	0.29	0.18			
Dgat2 (Diacylglycerol O-acyltransferase 2)	DRSC06803	0.21	0.32			
AttC (Attacin-C)	DRSC06886	0.27	0.27			
CG13067	DRSC09950	0.38	0.32			
CG10165	DRSC02017	0.35	0.28			
CG33111	DRSC14208	0.09	0.24			
CG33111	DRSC14444	0.37	0.37			
CG8187	DRSC07099	0.25	0.25			
CD98hc (CD98 heavy chain)	DRSC15453	0.14	-0.15			
HUWE1	DRSC20089	0.54	0.6			
Acp53C14c (Accessory gland protein 53C14c)	DRSC05626	-0.01	0.18			
Ret (Ret oncogene)	DRSC03409	0.44	0.4			
Ret (Ret oncogene)	DRSC03410	0.51	0.33			
Kaz1-ORFB	DRSC08669	0.32	0.31			
CG8197	DRSC07105	0.23	0.22			
tinc (tincar)	DRSC14798	0.23	0.35			
tinc (tincar)	DRSC14799	0.48	0.49			
tinc (tincar)	DRSC16308	0.38	-0.11			
tinc (tincar)	DRSC16309	0.22	-0.92			
CG7379	DRSC16237	0.27	0.23	0.5	0.88	
CG14929	DRSC02411	-0.21	0.19			
CG17385	DRSC06664	0.53	0.58			
CG7900	DRSC16336	0.38	0.45	0.63	0.16	
CG7900	DRSC21343	0.27	0.34			
Or13a (Odorant receptor 13a)	DRSC20265	0.15	0.1			
CG34155	DRSC13991	0.07	0.48			
Bbd (Bombardier)	DRSC06709	-0.25	0.42			
CG42512 + CG32573	DRSC19532	-0.29	-0.09			
CG42512 + CG32573	DRSC19906	0.37	0.27			
CG42512 + CG32573	DRSC22782	0.66	-0.15			
Fem-1	DRSC07322	0.05	0.13			
CG2310	DRSC15438	0.16	0.51			
tara (taranis)	DRSC17076	0.18	-0.19			

Records above whose target name starts with P or p:
gene	dsRNA	z-score, replicate 1	z-score, replicate 2	z-score, replicate 3	z-score, replicate 4	phenotype, replicate 1
Pglym78 (Phosphoglyceromutase 78)	DRSC16787	0.12	0.22			
Pdp1 (PAR-domain protein 1)	DRSC08896	-3.61	-2.31			reduced secretion
Pdp1 (PAR-domain protein 1)	DRSC08897	-4.04	-2.21			reduced secretion
Pdp1 (PAR-domain protein 1)	DRSC11251	0.02	0.14			
pn (prune)	DRSC18822	0.11	0.07			
Pp1-Y1 (Protein phosphatase 1, Y-linked 1)	DRSC20896	-1.52	-0.27			reduced secretion
